Results are given in words; binding and its absence hold for the method and conditions named. Binding seen in cells or lysates may run through a third protein. Here binding means that the protein was enriched with, or labelled near, the bait; the list need not be complete.
B1: Angiomiotin-like 1 (protein, UniProt Q8IY63 1-956)
chain: MWRAKLRRGTCEPAVKGSPSACYSPSSPVQVLEDSTYFSPDFQLYSGRHETSALTVEATSSIREKVVEDPLCNFHSPNFLRISEVEMRGSEDAAAGTVLQRLIQEQLRYGTPTENMNLLAIQHQATGSAGPAHPTNNFSSTENLTQEDPQMVYQSARQEPQGQEHQVDNTVMEKQVRSTQPQQNNEELPTYEEAKAQSQFFRGQQQQQQQQGAVGHGYYMAGGTSQKSRTEGRPTVNRANSGQAHKDEALKELKQGHVRSLSERIMQLSLERNGAKQHLPGSGNGKGFKVGGGPSPAQPAGKVLDPRGPPPEYPFKTKQMMSPVSKTQEHGLFYGDQHPGMLHEMVKPYPAPQPVRTDVAVLRYQPPPEYGVTSRPCQLPFPSTMQQHSPMSSQTSSASGPLHSVSLPLPLPMALGAPQPPPAASPSQQLGPDAFAIVERAQQMVEILTEENRVLHQELQGYYDNADKLHKFEKELQRISEAYESLVKSTTKRESLDKAMRNKLEGEIRRLHDFNRDLRDRLETANRQLSSREYEGHEDKAAEGHYASQNKEFLKEKEKLEMELAAVRTASEDHRRHIEILDQALSNAQARVIKLEEELREKQAYVEKVEKLQQALTQLQSACEKREQMERRLRTWLERELDALRTQQKHGNGQPANMPEYNAPALLELVREKEERILALEADMTKWEQKYLEESTIRHFAMNAAATAAAERDTTIINHSRNGSYGESSLEAHIWQEEEEVVQANRRCQDMEYTIKNLHAKIIEKDAMIKVLQQRSRKDAGKTDSSSLRPARSVPSIAAATGTHSRQTSLTSSQLAEEKKEEKTWKGSIGLLLGKEHHEHASAPLLPPPPTSALSSIASTTAASSAHAKTGSKDSSTQTDKSAELFWPSMASLPSRGRLSTTPAHSPVLKHPAAKGTAEKLENSPGHGKSPDHRGRVSSLLHKPEFPDGEMMEVLI

By UniProt entry, the sequences of proteins in these tests, tags left out. Residues count along the entry.
UniProt P46937: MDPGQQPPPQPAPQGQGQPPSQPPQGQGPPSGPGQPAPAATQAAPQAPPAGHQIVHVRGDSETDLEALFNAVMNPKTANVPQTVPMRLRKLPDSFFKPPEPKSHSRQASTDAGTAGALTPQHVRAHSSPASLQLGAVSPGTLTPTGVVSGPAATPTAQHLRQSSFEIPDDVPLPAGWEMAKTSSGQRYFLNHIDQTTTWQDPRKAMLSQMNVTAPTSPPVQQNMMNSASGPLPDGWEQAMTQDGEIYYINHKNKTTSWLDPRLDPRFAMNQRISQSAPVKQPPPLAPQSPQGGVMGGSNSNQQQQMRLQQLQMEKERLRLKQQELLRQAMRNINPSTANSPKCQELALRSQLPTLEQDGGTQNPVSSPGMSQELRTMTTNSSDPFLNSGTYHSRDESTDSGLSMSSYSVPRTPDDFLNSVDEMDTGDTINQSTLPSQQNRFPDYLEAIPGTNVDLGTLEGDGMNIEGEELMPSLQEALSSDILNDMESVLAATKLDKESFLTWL
UniProt Q5UIP0: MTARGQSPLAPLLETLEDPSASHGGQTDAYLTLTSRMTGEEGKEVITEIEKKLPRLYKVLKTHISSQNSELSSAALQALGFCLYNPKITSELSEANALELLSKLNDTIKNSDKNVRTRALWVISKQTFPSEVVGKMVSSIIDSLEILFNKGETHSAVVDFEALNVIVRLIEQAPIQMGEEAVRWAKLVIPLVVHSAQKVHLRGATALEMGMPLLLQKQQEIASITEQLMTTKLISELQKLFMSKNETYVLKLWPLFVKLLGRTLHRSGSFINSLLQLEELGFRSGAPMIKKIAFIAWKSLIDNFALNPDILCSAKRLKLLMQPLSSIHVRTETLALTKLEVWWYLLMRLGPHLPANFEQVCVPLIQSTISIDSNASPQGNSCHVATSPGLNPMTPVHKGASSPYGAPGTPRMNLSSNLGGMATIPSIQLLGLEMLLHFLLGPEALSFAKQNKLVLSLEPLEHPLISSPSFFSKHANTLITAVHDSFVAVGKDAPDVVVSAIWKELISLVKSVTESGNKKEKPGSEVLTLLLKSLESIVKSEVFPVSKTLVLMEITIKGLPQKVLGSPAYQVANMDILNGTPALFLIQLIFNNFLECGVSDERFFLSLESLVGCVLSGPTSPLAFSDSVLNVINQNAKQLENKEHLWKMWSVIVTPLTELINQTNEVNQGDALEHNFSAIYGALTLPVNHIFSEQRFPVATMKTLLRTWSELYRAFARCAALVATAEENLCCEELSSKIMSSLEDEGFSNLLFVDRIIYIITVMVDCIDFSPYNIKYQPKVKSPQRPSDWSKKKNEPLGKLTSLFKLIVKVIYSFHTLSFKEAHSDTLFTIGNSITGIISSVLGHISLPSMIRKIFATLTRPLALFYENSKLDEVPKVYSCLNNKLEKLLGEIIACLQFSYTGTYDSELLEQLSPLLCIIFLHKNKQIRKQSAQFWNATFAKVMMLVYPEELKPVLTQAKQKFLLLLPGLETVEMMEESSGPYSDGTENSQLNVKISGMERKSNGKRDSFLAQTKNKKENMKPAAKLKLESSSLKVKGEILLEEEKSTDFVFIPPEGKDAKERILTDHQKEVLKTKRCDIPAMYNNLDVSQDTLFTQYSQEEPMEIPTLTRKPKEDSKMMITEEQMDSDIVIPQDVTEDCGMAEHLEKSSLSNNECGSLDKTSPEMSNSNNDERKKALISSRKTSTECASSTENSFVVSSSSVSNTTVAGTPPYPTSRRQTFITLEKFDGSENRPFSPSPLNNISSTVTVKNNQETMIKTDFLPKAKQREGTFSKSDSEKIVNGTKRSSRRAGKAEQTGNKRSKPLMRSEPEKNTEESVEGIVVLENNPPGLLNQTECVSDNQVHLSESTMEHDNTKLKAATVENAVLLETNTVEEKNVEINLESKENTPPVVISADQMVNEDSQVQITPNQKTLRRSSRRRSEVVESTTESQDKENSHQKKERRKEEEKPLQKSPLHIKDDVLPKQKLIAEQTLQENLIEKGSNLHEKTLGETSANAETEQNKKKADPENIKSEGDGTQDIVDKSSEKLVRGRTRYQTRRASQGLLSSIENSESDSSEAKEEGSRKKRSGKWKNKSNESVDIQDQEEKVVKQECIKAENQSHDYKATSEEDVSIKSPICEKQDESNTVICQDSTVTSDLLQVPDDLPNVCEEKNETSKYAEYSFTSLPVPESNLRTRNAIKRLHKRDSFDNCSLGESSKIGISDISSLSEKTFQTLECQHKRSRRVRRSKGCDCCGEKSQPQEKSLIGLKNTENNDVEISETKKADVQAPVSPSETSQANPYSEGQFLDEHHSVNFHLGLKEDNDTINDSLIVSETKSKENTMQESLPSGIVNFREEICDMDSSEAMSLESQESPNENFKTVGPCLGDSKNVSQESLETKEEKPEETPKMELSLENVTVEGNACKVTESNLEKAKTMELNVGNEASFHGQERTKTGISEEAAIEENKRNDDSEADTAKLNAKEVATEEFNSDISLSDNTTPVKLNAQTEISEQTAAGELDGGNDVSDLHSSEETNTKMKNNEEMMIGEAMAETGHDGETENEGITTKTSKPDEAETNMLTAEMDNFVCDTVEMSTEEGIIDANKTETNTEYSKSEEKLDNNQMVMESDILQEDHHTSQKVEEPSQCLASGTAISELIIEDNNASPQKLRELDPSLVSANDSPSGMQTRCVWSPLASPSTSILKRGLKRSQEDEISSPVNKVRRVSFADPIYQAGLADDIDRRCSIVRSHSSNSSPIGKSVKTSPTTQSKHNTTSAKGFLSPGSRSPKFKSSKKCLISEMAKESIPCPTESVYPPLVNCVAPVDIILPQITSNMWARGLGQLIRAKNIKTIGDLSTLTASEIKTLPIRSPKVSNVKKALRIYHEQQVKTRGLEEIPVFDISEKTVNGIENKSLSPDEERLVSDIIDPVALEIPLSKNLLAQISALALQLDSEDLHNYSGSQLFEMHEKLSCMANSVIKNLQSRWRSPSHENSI
UniProt Q14839: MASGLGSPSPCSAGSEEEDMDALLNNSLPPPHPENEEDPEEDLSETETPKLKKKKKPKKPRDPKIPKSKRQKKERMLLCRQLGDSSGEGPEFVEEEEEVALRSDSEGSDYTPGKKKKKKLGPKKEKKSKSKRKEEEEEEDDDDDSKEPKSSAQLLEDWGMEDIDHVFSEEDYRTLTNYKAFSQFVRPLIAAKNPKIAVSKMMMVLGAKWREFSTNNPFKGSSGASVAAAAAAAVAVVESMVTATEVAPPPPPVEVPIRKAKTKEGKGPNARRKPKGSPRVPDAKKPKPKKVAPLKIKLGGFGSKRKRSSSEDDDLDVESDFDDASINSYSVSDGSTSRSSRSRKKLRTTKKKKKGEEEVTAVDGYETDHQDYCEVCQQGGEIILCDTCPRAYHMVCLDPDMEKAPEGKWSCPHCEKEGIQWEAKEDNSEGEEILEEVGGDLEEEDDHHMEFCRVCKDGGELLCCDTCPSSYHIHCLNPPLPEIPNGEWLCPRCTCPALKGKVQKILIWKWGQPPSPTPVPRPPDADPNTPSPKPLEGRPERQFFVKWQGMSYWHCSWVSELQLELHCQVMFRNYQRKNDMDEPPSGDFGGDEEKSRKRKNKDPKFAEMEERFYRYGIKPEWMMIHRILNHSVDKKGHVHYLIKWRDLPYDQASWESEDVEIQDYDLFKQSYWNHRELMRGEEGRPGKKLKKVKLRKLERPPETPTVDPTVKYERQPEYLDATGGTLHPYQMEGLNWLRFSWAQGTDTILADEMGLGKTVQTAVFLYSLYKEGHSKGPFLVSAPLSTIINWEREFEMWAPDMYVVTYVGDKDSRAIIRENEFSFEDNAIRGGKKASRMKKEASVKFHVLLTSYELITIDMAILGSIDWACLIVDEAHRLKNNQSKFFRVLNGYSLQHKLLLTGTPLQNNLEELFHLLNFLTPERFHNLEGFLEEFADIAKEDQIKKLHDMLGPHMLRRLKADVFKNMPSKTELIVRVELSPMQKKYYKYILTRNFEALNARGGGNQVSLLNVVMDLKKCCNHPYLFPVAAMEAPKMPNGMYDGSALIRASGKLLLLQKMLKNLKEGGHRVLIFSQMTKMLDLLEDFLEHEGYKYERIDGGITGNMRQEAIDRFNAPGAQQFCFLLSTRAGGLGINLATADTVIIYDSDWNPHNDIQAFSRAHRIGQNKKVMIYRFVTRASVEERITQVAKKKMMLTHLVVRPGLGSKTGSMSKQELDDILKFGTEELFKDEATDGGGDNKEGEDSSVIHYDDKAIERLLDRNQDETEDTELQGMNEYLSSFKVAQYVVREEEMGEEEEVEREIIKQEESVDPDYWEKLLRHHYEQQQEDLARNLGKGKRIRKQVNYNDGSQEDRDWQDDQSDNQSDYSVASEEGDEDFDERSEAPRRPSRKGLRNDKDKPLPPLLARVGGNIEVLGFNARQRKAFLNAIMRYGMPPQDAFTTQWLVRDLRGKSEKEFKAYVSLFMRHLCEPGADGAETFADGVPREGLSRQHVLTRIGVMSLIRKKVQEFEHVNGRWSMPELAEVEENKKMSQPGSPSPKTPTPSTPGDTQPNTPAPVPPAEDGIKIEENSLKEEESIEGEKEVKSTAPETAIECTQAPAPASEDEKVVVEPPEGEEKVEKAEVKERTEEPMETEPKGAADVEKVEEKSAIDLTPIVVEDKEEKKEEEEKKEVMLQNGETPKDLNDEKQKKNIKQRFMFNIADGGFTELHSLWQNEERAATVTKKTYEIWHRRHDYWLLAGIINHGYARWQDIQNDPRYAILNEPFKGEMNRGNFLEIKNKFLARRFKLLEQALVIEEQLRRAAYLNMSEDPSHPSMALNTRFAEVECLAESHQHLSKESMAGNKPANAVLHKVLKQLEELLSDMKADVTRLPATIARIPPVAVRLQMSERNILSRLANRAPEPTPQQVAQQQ
UniProt O15460, residues 22-535: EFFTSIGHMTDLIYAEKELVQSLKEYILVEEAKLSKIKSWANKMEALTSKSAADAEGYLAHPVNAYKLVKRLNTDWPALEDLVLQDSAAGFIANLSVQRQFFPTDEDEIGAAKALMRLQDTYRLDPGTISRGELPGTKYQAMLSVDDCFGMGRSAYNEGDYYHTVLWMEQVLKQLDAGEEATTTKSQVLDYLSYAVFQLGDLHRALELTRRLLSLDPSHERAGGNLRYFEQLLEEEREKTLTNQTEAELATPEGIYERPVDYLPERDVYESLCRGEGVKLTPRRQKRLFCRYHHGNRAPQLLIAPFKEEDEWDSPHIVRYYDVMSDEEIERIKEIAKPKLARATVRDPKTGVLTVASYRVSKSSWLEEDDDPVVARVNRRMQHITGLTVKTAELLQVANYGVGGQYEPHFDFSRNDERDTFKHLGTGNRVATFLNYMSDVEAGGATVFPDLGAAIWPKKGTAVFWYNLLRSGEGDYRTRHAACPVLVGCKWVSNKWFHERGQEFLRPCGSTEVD
UniProt Q969G3: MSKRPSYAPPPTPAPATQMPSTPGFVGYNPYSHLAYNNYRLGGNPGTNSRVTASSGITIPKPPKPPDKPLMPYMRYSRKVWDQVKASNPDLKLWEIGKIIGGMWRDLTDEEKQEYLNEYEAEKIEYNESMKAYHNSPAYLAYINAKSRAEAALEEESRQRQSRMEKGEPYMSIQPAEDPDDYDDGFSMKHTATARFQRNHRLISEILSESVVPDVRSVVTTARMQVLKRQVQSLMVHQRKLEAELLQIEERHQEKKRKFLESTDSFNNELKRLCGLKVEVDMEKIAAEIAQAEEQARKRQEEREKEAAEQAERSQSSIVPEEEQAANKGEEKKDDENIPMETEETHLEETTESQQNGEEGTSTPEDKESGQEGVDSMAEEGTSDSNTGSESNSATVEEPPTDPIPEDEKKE
UniProt P11387: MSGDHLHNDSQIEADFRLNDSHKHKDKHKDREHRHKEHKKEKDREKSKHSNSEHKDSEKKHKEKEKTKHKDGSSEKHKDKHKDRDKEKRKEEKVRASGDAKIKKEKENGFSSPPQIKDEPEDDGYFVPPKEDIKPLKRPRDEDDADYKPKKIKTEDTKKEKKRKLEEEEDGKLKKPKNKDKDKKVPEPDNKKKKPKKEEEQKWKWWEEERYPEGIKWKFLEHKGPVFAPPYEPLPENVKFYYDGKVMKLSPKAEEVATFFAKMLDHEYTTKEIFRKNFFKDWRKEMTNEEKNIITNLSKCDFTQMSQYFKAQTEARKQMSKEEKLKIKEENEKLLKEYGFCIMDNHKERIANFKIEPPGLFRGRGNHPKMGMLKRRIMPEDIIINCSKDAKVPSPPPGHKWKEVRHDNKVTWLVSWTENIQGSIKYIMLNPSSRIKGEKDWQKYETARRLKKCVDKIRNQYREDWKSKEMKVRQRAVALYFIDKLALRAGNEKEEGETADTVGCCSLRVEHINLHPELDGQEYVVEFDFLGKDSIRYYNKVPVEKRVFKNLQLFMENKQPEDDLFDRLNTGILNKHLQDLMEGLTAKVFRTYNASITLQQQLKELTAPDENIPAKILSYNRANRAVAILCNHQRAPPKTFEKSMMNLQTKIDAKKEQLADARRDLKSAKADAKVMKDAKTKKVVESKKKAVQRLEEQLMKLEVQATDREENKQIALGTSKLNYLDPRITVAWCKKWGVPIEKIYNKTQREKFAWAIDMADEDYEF

Each molecule was assayed against Yes-associated protein (human (endogenous in SCC13, NHK and HARA)) (UniProt P46937) (assay: affinity purification with mass spectrometry).

| Molecule | binding |
| --- | --- |
| RIF1 (from UniProt Q5UIP0 1-2472) | binds |

Molecular target: Yes-associated protein (human (endogenous in SCC13, NHK and HARA)) (UniProt P46937)
Experiment: affinity purification with mass spectrometry
Remark: another data set of the same source

| Molecule | binding |
| --- | --- |
| Chromodomain-helicase-DNA-binding protein 4 (from UniProt Q14839 1-1912) | binds |
| GTF21 (from UniProt P78347 1-998) | binds |
| PPP1CB, one the catalytic subunits of protein phosphatase 1 (PP1) (from UniProt P62140 1-327) (enzyme) | binds |
| Prolyl 4-Hydroxylase subunit alpha 2 (from UniProt O15460 22-535) (enzyme) | binds |
| RIF1 (from UniProt Q5UIP0 1-2472) | binds |
| SWI/SNF-related matrix-associated actin-dependent regulator of chromatin subfamily C member 1 (from UniProt Q92922 1-1105) | binds |
| SWI/SNF-related matrix-associated actin-dependent regulator of chromatin subfamily D member 2 (from UniProt Q92925 1-531) | binds |
| SWI/SNF-related matrix-associated actin-dependent regulator of chromatin subfamily E member 1 (from UniProt Q969G3 1-411) | binds |
| TOP1 (from UniProt P11387 1-765) (enzyme) | binds |
| B1 | binds |
